Chains of the proteins cited; added tags and fusions are not shown. Residues count along the entry.
UniProt Q92804, residues 2-205: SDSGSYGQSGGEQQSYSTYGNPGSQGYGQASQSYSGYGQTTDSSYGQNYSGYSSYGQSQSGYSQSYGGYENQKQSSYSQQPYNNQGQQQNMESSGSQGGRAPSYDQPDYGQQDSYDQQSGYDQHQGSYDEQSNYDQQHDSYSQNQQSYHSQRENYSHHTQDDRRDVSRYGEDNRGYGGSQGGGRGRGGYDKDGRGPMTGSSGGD
UniProt Q8NDZ2: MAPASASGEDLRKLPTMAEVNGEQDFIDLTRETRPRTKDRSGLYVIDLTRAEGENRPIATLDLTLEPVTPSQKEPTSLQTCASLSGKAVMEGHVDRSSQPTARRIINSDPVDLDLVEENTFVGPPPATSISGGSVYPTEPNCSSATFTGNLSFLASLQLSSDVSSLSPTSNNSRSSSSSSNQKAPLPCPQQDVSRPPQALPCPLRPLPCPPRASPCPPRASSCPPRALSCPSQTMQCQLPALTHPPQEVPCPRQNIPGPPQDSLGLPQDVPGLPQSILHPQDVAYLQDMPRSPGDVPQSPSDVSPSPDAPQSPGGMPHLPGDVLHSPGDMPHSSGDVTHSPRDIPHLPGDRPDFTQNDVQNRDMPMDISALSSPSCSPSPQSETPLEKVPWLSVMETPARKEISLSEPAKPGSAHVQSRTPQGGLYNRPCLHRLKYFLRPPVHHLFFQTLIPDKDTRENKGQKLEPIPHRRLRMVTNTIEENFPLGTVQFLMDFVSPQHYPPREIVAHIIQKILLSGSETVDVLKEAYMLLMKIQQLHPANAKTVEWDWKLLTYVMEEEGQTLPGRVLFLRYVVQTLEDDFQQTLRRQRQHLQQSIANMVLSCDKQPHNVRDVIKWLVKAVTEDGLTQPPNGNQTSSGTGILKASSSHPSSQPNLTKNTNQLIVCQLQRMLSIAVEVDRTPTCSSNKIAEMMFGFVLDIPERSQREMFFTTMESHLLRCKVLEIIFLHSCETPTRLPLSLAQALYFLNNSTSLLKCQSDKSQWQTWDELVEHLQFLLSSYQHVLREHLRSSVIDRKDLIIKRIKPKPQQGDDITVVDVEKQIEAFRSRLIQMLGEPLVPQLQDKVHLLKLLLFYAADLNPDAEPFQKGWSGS

According to doi:10.1101/2025.10.27.684971:

Target: TurboID and mCherry fused directly to TAF15 IDR (human) (UniProt Q92804)
Assay: proximity labelling

For SIMC1 (from UniProt Q8NDZ2 1-872), which binding is on record?
Its binding is “no binding”.

No constants are given. Whether binding was seen depends on the method and setting. Binding seen in cells or lysates may run through a third protein. A yes stands for co-enrichment or nearness to the bait. Other partners may have been found. No binding means not detected with the bait.
